Results deposited as PubChem BioAssay AID1224830 (NIAID, 2016).

Test: 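Genes whose knock-down alters the TNF-alpha reporter response to LPS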 (primary screen)
Cells: human THP-1 monocytic leukaemia cells, TNF dual-luciferase reporter clone, PMA-differentiated to macrophage-like cells
Reagents: siRNA pool against human genes, 50 nM
Duration: LPS for 4 h, given about 3 days after siRNA transfection
Treatment: bacterial LPS (TLR4 ligand), 10 ng/ml
Measured: 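TNF firefly reporter luminescence divided by renilla, normalised to the plate median, then turned into a robust z-score for each replicate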
Reading the numbers: TNF reporter robust z-score: higher = stronger TNF reporter response to LPS
Active means: 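a well is active when its z-score exceeds 2.8 or falls below -1.5; control wells carry no call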
In all, the deposit lists about 18,000 reagents; below is a part drawn at random. Of all reagents, about 2,900 (16%) got an active call. 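Calls are made per well; low scores hint the gene aids the LPS response, high scores that it dampens it.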 Repeated entries: four replicate wells of each siRNA pool.

| gene symbol | TNF reporter robust z-score | outcome |
| --- | --- | --- |
| BMP5 | 0.44 | inactive |
| BMP5 | 0.41 | inactive |
| BMP5 | 0.02 | inactive |
| BMP5 | 0.19 | inactive |
| TADA3 | 1.14 | inactive |
| TADA3 | 1.15 | inactive |
| TADA3 | -0.31 | inactive |
| TADA3 | 0.12 | inactive |
| CERS3 | -0.55 | inactive |
| CERS3 | -0.85 | inactive |
| CERS3 | -0.79 | inactive |
| CERS3 | 0.36 | inactive |
| CACNA1G | 0.21 | inactive |
| CACNA1G | 1.69 | inactive |
| CACNA1G | -0.3 | inactive |
| CACNA1G | 0.57 | inactive |
| CLDN6 | -0.97 | inactive |
| CLDN6 | -0.49 | inactive |
| CLDN6 | -0.83 | inactive |
| CLDN6 | -0.75 | inactive |
| FH | 0.02 | inactive |
| FH | 1.17 | inactive |
| FH | -0.32 | inactive |
| FH | -0.65 | inactive |
| RPP21 | -0.55 | inactive |
| RPP21 | -0.5 | inactive |
| RPP21 | -0.72 | inactive |
| RPP21 | -0.36 | inactive |
| GLRX2 | -0.28 | inactive |
| GLRX2 | 0.55 | inactive |
| GLRX2 | -0.22 | inactive |
| GLRX2 | 0.29 | inactive |
| KLHL1 | 1.44 | inactive |
| KLHL1 | 1.4 | inactive |
| KLHL1 | 2.63 | inactive |
| KLHL1 | 0 | inactive |
| WDR93 | 0.45 | inactive |
| WDR93 | -0.47 | inactive |
| WDR93 | 0.87 | inactive |
| WDR93 | 0.89 | inactive |
| DNAJC14 | 0.14 | inactive |
| DNAJC14 | 0.12 | inactive |
| DNAJC14 | -0.45 | inactive |
| DNAJC14 | 1.07 | inactive |
| IL24 | 1.05 | inactive |
| IL24 | 0.69 | inactive |
| IL24 | 1.91 | inactive |
| IL24 | 0.57 | inactive |
| GBGT1 | -0.69 | inactive |
| GBGT1 | 0.43 | inactive |
| GBGT1 | -1.07 | inactive |
| GBGT1 | 0.3 | inactive |
| COMTD1 | -0.29 | inactive |
| COMTD1 | -0.12 | inactive |
| COMTD1 | 0.61 | inactive |
| COMTD1 | 0.92 | inactive |
| ARHGEF1 | 1.91 | inactive |
| ARHGEF1 | 2.17 | inactive |
| ARHGEF1 | 2.44 | inactive |
| ARHGEF1 | -0.51 | inactive |
| ATOX1 | -1.11 | inactive |
| ATOX1 | -2.23 | active |
| ATOX1 | -1.01 | inactive |
| ATOX1 | 0.08 | inactive |
| DOLPP1 | -0.95 | inactive |
| DOLPP1 | -1.04 | inactive |
| DOLPP1 | -0.79 | inactive |
| DOLPP1 | -1.26 | inactive |
| OCM2 | -0.21 | inactive |
| OCM2 | 0.46 | inactive |
| OCM2 | 0.15 | inactive |
| OCM2 | 0.41 | inactive |
| PLTP | 0.03 | inactive |
| PLTP | 0.41 | inactive |
| PLTP | -0.24 | inactive |
| PLTP | 1.33 | inactive |

Part of the list above, set out differently:
{"gene symbol":"BMP5","TNF reporter robust z-score":0.02,"outcome":"inactive"}
{"gene symbol":"BMP5","TNF reporter robust z-score":0.19,"outcome":"inactive"}
{"gene symbol":"TADA3","TNF reporter robust z-score":1.14,"outcome":"inactive"}
{"gene symbol":"TADA3","TNF reporter robust z-score":1.15,"outcome":"inactive"}
{"gene symbol":"TADA3","TNF reporter robust z-score":-0.31,"outcome":"inactive"}
{"gene symbol":"TADA3","TNF reporter robust z-score":0.12,"outcome":"inactive"}
{"gene symbol":"CERS3","TNF reporter robust z-score":-0.55,"outcome":"inactive"}
{"gene symbol":"CERS3","TNF reporter robust z-score":-0.85,"outcome":"inactive"}
{"gene symbol":"CERS3","TNF reporter robust z-score":-0.79,"outcome":"inactive"}
{"gene symbol":"CERS3","TNF reporter robust z-score":0.36,"outcome":"inactive"}
{"gene symbol":"CACNA1G","TNF reporter robust z-score":0.21,"outcome":"inactive"}

The list goes on.
| gene symbol | TNF reporter robust z-score | outcome |
| --- | --- | --- |
| LHFPL7 | -0.77 | inactive |
| LHFPL7 | -0.97 | inactive |
| LHFPL7 | -0.81 | inactive |
| LHFPL7 | -1.1 | inactive |
| BAK1 | 2.78 | inactive |
| BAK1 | 0.66 | inactive |
| BAK1 | 1.7 | inactive |
| BAK1 | 0.21 | inactive |
| CCNI2 | 0.51 | inactive |
| CCNI2 | 0.39 | inactive |
| CCNI2 | -0.06 | inactive |
| CCNI2 | 0.44 | inactive |
| ZNF76 | -1.11 | inactive |
| ZNF76 | 0.87 | inactive |
| ZNF76 | -1.14 | inactive |
| ZNF76 | 0.1 | inactive |
| ALKBH3 | 1.38 | inactive |
| ALKBH3 | 1 | inactive |
| ALKBH3 | 1.51 | inactive |
| ALKBH3 | -0.16 | inactive |
| TAF4 | -1.52 | active |
| TAF4 | -0.74 | inactive |
| TAF4 | -0.45 | inactive |
| TAF4 | -0.54 | inactive |
| PRPH | 1.19 | inactive |
| PRPH | 0.49 | inactive |
| PRPH | 0.65 | inactive |
| PRPH | -0.74 | inactive |
| RPS6KA4 | -0.31 | inactive |
| RPS6KA4 | -0.79 | inactive |
| RPS6KA4 | -0.93 | inactive |
| RPS6KA4 | -1.45 | inactive |
| SCRT2 | -0.52 | inactive |
| SCRT2 | -0.53 | inactive |
| SCRT2 | -1.09 | inactive |
| SIGLEC10 | -1.43 | inactive |
| SIGLEC10 | -0.84 | inactive |
| SIGLEC10 | -0.91 | inactive |
| SIGLEC10 | -0.82 | inactive |
| ZNF350 | -0.08 | inactive |
| ZNF350 | -0.81 | inactive |
| ZNF350 | -1.7 | active |
| ZNF350 | -1.28 | inactive |
| TRIM14 | 0.39 | inactive |
| TRIM14 | 1.43 | inactive |
| TRIM14 | -0.66 | inactive |
| TRIM14 | -0.74 | inactive |
| PRAMEF2 | 0.82 | inactive |
| PRAMEF2 | 0.19 | inactive |
| PRAMEF2 | 0.5 | inactive |
| PRAMEF2 | 1.06 | inactive |
| CPN2 | -0.3 | inactive |
| CPN2 | -0.01 | inactive |
| CPN2 | -0.15 | inactive |
| CPN2 | -0.47 | inactive |
| AP3D1 | -1.18 | inactive |
| AP3D1 | -0.28 | inactive |
| AP3D1 | -0.18 | inactive |
| AGTR1 | -0.06 | inactive |
| AGTR1 | 0.44 | inactive |
| AGTR1 | 0.02 | inactive |
| AGTR1 | 0.36 | inactive |
| CFAP53 | 1.67 | inactive |
| CFAP53 | -0.16 | inactive |
| CFAP53 | -0.55 | inactive |
| CFAP53 | -0.13 | inactive |
